According to PubChem BioAssay AID588590 (National Center for Advancing Translational Sciences (NCATS), 2011):
In all, about 390,000 compounds went through this assay and about 4,000 (1%) were called active. The shares of active, inactive and inconclusive entries below differ from those in the screen. The call rests on the fitted dose curve; in most records, active means well fitted inhibition curve with a large enough effect; inconclusive means small, poorly fitted or top-dose-only effect, or another doubt; inactive means no such curve, though single readings can be large or run the other way. Potencies of inconclusive entries are doubtful fits and often do not repeat.

Sequences of proteins named here, by UniProt entry; tags and fusion partners are left off. A change or cut given only in a name is not applied to a line headed by its entry.
UniProt Q9UNA4: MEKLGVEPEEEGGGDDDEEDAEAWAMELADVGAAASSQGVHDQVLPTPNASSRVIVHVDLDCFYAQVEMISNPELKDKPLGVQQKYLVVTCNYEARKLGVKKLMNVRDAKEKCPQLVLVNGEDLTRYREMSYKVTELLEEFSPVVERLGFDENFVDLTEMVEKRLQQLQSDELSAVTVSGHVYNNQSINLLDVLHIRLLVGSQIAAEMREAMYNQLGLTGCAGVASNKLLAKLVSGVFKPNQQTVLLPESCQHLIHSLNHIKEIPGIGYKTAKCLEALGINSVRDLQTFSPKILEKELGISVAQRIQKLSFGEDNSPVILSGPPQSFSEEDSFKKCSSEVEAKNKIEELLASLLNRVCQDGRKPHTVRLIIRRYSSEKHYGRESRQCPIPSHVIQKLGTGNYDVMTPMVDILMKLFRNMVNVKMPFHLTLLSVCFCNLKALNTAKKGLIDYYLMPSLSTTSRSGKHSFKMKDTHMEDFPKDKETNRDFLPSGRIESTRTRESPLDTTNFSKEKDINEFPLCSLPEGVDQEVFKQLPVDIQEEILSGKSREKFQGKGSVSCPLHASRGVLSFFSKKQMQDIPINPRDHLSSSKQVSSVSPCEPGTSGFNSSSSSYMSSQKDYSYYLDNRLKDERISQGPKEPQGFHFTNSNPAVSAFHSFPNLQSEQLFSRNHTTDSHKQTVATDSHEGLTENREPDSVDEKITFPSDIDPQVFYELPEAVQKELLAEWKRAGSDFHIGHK

Each molecule was assayed against DNA polymerase iota (Homo sapiens) (UniProt Q9UNA4) (assay: qHTS for Inhibitors of Polymerase Iota). Conditions: Pol iota fluorescent replication assay, 10 min; series mostly up to 115 µM.
Procedure, shortened: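 Pol iota at 10 nM preincubated 15 min with compounds at room temperature; reaction started with fluorescent substrate, 50 nM final. Fluorescence read kinetically at 0 and 10 min; buffer-only wells as negative control.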
Potency means the concentration at half of the fitted maximal effect.

Structure (SMILES) | Potency
CCN(Cc1ccccc1)C(=O)c1cc(-c2ccccc2)n[nH]1 | inactive
CCCn1c(C2CCCN2c2nc(C)cs2)nc2cc(Cl)c(Cl)cc21 (centres undefined) | inconclusive: 39.8 µM [inhibitor, partial curve, poor fit]
CC(=O)Nc1cccc(NC(=O)C2CCCN2C(=O)Nc2cccc(F)c2)c1 (centres undefined) | inconclusive: 89.1 µM [inhibitor, partial curve, poor fit]
CC(C)(C)C(=O)OCc1nc(-c2ccc(O)c(O)c2)cs1 | active: 31.6 µM
COc1ccc(OC)c(N=Nc2c(O)c3ccccc3[nH]c2=O)c1 | inconclusive: 14.1 µM [inhibitor, partial curve, poor fit]
COc1ccc(C)cc1NC(=O)c1cc(S(=O)(=O)N2CCOCC2)cn1C | inconclusive: 10 µM [inhibitor, partial curve, poor fit]
CC(C)c1ccc(Nc2nnc(SCC(=O)c3nnc(-c4ccccc4)o3)s2)cc1 | active: 22.4 µM
O=C(O)CCNc1ccc2c(c1)OCCO2 | inconclusive: 17.8 µM [inhibitor, partial curve, poor fit]
O=C(c1ccccc1Sc1ccccc1[N+](=O)[O-])N1CCCCC1 | inactive
O=C(O)c1ccc(-n2ncc3c2/C(=C/c2cccc([N+](=O)[O-])c2)CC3)cc1 | inconclusive: 35.5 µM [inhibitor, partial curve]
CCN(CC)c1ccc(/C=C2\CCC(/C=N/NC(=O)c3ccc(=O)n(C)c3)=C2N2CCOCC2)cc1 | inactive
COc1cc(CCCN2CCNC[C@@H]2Cc2ccc(O)cc2)cc(OC)c1OC | inconclusive: 39.8 µM [inhibitor, single point]
CCCCN(C(=O)NC(=O)Nc1nc2ccc(OC)cc2s1)S(C)(=O)=O | inconclusive: 79.4 µM [inhibitor, single point]
COCCN(Cc1nc(-c2ccc(-c3ccccc3)cc2)oc1C)C(C)C | inactive
CCOc1c(Cl)cc(/C=N/NC(N)=S)cc1OC | inconclusive: 79.4 µM [inhibitor, partial curve, poor fit]
COc1ccc(-n2c(Cc3cccn3C)nnc2SCC(=O)Nc2nccs2)cc1 | inconclusive: 44.7 µM [inhibitor, partial curve, poor fit]
CCOP(=O)(OCC)C(C#N)=C1SCN(c2ccccc2)CS1 | inconclusive: 28.2 µM [inhibitor, partial curve, poor fit]
CCN(CC(=O)Nc1ccc(OC)cc1)C(=O)c1ccc2c(=O)n3c(nc2c1)CCC3 | inactive
O=C(Nc1ccc(NC(=O)c2cc3ccccc3o2)cc1)c1ccco1 | inconclusive: 5.01 µM [inhibitor, full curve, poor fit]
CCOc1ccnc2c1c(=O)n(Cc1cc(OC)cc(OC)c1)c(=O)n2C | inconclusive: 89.1 µM [inhibitor, single point]

Structure (SMILES) | Potency
CC(=O)Nc1ccc2c(c1)Cc1cc(N3C(=O)C=CC3=O)ccc1-2 | inconclusive: 50.1 µM [inhibitor, partial curve, poor fit]
COc1ccc(OCC(=O)Nc2ccc(S(=O)(=O)Nc3cc(C)on3)cc2)cc1 | inconclusive: 56.2 µM [inhibitor, partial curve, poor fit]
OC1CCCN(Cc2ccc3ccc4cccc5ccc2c3c45)C1 (centres undefined) | inconclusive: 14.1 µM [inhibitor, full curve, poor fit]
O=C(COc1ccccc1/C=C1\SC(=S)NC1=O)Nc1ccc(F)cc1 | inconclusive: 39.8 µM [inhibitor, single point]
Cc1cc(C(=O)CN2C(=O)NC3(CCCCC3)C2=O)c(C)n1C | inconclusive: 79.4 µM [inhibitor, partial curve]
COc1ccc2c(c1)[n+](=O)c(C(C)=O)c(C)n2[O-] | inconclusive: 22.4 µM [inhibitor, full curve]
CCOC(=O)c1ccc2c(c1)nc(SCC(=O)c1cc3ccccc3o1)n2CC | inconclusive: 25.1 µM [inhibitor, single point]
C=CC(=O)Nc1cccc(N(C)c2ccnc(Nc3ccc(N4CCN(C)CC4)cc3)n2)c1 | inconclusive: 20 µM [inhibitor, partial curve, poor fit]
CCc1ccc(N2C(=O)CN(Cc3cccs3)C2=S)cc1 | inactive
OC1(CN2CCOCC2)C2CN3CCN(C2)CC1(c1ccccc1)C3 (centres undefined) | inconclusive: 56.2 µM [inhibitor, full curve, poor fit]
CCN1C(=NCCN2CCOCC2)N[C@@H](c2ccccc2)C(C(=O)OC)=C1C | inconclusive: 11.2 µM [inhibitor, partial curve, poor fit]
O=C(Oc1ccc(N2C(=O)CCC2=O)cc1)c1ccccc1 | inconclusive: 39.8 µM [inhibitor, partial curve, poor fit]
COCCn1c(C)cc(C(=O)COC(=O)c2ccc(NC(=O)CC#N)cc2)c1C | inconclusive: 2.51 µM [inhibitor, full curve, poor fit]
Cc1ccc(-n2c(=O)c3sc4ccccc4c3n(C)c2=O)cc1F | inconclusive: 100 µM [inhibitor, partial curve, poor fit]
O=C(NC1CCCCC1)C(c1ccc2ncccc2c1)N(Cc1ccccc1)C(=O)c1ccc2c(c1)OCCO2 (centres undefined) | inconclusive: 20 µM [inhibitor, partial curve, poor fit]
C=C(C(=O)c1ccccc1)C(C)C(=C)C(=O)c1ccccc1 | inconclusive: 100 µM [inhibitor, partial curve, poor fit]
O=C1c2ccccc2C(=O)C1c1ccc2ccccc2n1 | inconclusive: 89.1 µM [inhibitor, partial curve, poor fit]
COc1cc(CNCc2ccncc2)cc(Br)c1OCc1ccccc1F | inconclusive: 14.1 µM [inhibitor, full curve, poor fit]
O=C1CN(/N=C/c2ccc([N+](=O)[O-])o2)C(=O)N1 | inconclusive: 79.4 µM [inhibitor, single point]

Of the compounds above, 3 contain a furan ring, fused or not.
Structure (SMILES) | Potency
O=C(Nc1ccc(NC(=O)c2cc3ccccc3o2)cc1)c1ccco1 | inconclusive: 5.01 µM [inhibitor, full curve, poor fit]
CCOC(=O)c1ccc2c(c1)nc(SCC(=O)c1cc3ccccc3o1)n2CC | inconclusive: 25.1 µM [inhibitor, single point]
O=C1CN(/N=C/c2ccc([N+](=O)[O-])o2)C(=O)N1 | inconclusive: 79.4 µM [inhibitor, single point]
